In the supplement of paper PMC12819154, “High-throughput peptide-centric local stability assay extends protein–ligand identification to membrane proteins, tissues and bacteria” (Nature Structural & Molecular Biology, 2025):
This is one part of the list. Most values lie at the level of the controls, where differences are scatter.

The chains behind the UniProt entries cited, without tags or fusion partners. Where a name states a change or a piece, a line headed by the entry shows the natural chain unless it says otherwise.
UniProt Q8IZ69: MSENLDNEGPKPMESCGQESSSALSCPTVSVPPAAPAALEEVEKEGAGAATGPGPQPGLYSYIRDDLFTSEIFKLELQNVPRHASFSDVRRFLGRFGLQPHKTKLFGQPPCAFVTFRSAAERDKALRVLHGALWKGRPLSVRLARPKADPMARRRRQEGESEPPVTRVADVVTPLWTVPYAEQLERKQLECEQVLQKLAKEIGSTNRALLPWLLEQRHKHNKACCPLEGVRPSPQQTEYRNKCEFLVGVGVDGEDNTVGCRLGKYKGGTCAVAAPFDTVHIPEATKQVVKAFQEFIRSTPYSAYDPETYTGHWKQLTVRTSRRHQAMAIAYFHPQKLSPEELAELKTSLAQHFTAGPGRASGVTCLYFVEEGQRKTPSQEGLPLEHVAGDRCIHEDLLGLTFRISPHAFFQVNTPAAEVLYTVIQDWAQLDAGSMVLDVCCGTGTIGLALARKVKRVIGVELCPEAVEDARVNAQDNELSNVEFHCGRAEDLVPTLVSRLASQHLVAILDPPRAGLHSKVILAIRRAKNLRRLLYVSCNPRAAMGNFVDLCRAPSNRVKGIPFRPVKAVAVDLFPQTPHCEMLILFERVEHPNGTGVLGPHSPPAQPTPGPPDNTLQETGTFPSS
UniProt Q8IVT2: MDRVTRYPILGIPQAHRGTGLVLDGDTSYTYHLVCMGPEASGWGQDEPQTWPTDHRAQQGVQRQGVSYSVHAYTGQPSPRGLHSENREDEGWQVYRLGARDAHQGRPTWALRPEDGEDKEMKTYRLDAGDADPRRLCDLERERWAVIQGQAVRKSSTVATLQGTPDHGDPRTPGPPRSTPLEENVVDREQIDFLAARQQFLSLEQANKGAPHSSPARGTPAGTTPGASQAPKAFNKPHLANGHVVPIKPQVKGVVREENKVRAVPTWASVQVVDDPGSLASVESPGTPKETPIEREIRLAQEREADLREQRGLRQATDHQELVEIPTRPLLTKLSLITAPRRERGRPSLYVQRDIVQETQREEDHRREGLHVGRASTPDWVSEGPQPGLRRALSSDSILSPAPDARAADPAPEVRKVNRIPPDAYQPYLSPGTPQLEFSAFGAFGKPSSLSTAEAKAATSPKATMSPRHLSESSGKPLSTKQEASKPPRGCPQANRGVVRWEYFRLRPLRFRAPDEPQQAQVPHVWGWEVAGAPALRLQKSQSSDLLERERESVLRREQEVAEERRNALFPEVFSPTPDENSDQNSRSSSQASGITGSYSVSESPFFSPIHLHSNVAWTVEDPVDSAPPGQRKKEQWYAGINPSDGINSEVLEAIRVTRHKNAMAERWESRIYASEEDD
UniProt Q86XN7: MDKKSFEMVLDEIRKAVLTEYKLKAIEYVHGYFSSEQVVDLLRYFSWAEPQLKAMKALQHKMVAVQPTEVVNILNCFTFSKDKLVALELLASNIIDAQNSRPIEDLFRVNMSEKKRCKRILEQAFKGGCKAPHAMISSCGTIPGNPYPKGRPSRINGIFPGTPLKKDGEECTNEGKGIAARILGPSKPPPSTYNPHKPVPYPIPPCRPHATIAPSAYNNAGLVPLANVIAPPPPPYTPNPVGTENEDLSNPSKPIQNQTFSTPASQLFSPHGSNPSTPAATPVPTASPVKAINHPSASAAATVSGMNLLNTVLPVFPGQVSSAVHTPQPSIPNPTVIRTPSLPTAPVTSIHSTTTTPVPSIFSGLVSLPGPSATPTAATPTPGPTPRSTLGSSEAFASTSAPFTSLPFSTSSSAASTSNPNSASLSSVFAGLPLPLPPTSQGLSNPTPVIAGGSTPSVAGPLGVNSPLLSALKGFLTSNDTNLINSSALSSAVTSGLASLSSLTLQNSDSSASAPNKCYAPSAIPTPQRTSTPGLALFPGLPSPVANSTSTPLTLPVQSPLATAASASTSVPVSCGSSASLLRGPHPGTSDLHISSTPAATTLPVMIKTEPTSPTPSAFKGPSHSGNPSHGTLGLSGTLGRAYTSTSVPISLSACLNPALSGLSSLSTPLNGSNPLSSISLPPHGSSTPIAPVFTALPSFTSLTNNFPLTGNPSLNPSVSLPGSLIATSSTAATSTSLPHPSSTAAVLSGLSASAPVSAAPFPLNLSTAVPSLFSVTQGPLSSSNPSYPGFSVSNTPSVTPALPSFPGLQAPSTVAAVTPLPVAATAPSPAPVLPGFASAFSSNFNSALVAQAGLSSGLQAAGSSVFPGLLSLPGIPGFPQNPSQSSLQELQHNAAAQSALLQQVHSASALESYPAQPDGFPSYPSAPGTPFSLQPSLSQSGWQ
UniProt Q86YH2: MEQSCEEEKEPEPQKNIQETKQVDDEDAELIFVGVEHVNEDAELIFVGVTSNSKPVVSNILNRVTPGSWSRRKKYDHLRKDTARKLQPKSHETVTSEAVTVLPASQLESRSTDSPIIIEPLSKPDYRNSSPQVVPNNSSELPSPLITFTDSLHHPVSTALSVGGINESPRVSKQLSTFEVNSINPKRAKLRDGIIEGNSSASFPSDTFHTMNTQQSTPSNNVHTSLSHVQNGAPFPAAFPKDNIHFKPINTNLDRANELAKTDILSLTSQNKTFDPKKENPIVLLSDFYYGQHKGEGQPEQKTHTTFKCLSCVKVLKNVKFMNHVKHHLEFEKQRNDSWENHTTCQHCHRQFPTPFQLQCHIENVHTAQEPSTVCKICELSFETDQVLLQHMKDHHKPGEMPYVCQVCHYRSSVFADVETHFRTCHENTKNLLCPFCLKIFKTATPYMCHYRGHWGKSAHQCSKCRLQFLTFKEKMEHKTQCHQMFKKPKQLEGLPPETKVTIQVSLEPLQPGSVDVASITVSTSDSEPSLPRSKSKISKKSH
UniProt Q8IYI0: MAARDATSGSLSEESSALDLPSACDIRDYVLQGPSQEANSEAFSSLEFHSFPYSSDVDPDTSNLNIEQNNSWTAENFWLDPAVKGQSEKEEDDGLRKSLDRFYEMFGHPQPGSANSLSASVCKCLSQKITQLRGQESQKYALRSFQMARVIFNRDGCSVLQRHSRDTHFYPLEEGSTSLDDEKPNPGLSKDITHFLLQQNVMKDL
UniProt Q86VQ3: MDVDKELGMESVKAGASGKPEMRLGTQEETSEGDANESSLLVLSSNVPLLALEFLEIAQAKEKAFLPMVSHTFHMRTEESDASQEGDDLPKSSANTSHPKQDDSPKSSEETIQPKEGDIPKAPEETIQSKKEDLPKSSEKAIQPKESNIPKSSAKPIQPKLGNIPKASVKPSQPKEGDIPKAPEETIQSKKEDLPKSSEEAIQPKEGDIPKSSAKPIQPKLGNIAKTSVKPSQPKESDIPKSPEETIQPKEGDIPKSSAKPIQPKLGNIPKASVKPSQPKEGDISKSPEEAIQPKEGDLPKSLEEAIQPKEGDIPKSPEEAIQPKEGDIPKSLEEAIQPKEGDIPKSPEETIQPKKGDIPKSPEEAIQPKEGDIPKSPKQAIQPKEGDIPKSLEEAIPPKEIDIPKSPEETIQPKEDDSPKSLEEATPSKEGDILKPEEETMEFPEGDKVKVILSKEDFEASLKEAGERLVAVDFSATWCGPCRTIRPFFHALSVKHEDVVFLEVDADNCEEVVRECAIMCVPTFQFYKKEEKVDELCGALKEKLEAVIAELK
UniProt Q86X95: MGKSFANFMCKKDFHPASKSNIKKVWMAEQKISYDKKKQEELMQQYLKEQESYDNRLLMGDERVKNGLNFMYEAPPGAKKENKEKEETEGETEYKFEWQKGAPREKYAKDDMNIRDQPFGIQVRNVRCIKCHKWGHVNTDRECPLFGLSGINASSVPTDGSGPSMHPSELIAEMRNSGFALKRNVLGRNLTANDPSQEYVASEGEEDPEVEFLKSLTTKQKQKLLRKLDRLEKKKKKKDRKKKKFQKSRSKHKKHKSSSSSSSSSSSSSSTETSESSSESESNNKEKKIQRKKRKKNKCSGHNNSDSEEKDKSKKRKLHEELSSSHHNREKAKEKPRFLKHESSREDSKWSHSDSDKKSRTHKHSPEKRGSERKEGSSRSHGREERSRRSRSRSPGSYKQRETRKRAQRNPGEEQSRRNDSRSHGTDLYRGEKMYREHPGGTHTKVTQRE
UniProt Q8IWU2: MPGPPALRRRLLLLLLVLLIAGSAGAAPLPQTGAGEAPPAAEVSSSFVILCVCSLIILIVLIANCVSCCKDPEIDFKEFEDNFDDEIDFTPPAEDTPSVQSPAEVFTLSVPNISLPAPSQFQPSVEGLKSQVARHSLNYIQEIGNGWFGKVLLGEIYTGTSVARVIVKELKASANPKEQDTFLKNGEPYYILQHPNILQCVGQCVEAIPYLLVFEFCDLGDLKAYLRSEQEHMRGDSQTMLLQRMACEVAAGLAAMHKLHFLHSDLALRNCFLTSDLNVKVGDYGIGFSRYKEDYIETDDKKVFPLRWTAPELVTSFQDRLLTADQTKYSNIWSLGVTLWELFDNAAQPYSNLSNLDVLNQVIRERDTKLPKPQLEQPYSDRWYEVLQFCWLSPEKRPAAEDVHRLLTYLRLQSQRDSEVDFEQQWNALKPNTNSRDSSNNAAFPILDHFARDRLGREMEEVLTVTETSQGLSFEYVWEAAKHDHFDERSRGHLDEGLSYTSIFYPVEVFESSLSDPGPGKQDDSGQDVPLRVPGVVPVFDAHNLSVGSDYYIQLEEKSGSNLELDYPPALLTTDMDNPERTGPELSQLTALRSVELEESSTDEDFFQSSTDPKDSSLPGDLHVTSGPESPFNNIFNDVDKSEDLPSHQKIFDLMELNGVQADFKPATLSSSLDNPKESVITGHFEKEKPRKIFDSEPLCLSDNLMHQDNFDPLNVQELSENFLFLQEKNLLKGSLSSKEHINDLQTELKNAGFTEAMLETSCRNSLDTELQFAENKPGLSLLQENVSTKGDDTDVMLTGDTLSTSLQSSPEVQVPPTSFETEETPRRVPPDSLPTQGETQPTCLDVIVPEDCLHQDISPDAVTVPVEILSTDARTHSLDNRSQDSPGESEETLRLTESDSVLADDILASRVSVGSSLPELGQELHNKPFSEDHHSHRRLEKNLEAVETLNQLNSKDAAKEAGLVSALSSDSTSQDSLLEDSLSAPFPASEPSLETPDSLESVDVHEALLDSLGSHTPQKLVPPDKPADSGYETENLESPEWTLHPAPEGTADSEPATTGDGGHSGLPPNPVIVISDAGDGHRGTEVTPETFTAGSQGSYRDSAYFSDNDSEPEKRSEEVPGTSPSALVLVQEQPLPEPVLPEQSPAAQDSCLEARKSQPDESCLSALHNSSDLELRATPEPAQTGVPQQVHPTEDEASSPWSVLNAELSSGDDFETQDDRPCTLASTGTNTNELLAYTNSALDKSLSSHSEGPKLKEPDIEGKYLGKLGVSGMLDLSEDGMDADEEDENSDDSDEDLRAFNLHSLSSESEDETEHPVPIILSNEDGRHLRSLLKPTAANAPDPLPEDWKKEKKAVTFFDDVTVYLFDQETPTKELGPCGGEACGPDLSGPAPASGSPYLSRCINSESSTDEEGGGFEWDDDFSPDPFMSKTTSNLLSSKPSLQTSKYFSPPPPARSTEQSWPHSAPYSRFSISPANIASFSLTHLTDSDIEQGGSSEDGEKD

The targets below were run with Cc1nc(Nc2ncc(C(=O)Nc3c(C)cccc3Cl)s2)cc(N2CCN(CCO)CC2)n1 [dasatinib] (assay: log2 fold change of tryptic peptide abundance, ligand vs vehicle (limited proteolysis) (log2 ratio); higher = more trypsin-susceptible (destabilized)). Settings: ligand concentration: 5 uM; sample: K562 cleared lysate.

Target | log2 fold change
TRMT2A (peptide sequence: HNKACCPLEGVRPSPQQTEYR, peptide start residue: 220) (UniProt Q8IZ69) | -0.34
MISP (peptide sequence: ERESVLR, peptide start residue: 310) (UniProt Q8IVT2) | -0.056
PROSER1 (peptide sequence: KAVLTEYK, peptide start residue: 15) (UniProt Q86XN7) | 0.517
ZNF280B (peptide sequence: TDILSLTSQNK, peptide start residue: 262) (UniProt Q86YH2) | -0.231
SHLD1 (peptide sequence: DITHFLLQQNVMK, peptide start residue: 191) (UniProt Q8IYI0) | -1.26
TXNDC2 (peptide sequence: SPEETIQPK, peptide start residue: 242) (UniProt Q86VQ3) | -0.498
UniProt Q86X95 (peptide sequence: SHGTDLYR, peptide start residue: 423) | 0.196
LMTK2 (peptide sequence: STEQSWPHSAPYSR, peptide start residue: 1457) (UniProt Q8IWU2) | -0.332
